# Laboratory results: PubChem BioAssay AID1259254 (NCATS, 2017)
# Test: 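Gene knock-downs that lead to re-replication, shown by excess G2 DNA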 (primary screen)
# System: human HCT116 colorectal cancer cells
# Reagents: single siRNA against human genes
# Duration: 3 days
# Read-out: 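Nuclei stained with Hoechst and imaged; cell-cycle phase assigned by DNA content; G2 share scaled per plate, non-targeting siRNA 0%, GMNN siRNA 100%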
# Direction: G2 robust z-score and G2 cells, % of GMNN control: higher = more G2 cells, more excess DNA replication
# Call rule: 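An siRNA counts as active if its G2 robust z-score lies at least 5 MADs above the screen median; here such calls match roughly 38% of GMNN control or more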
# This is an unselected part of about 59,000 reagents. About 1,550 of all reagents (2.6%) were called active. 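G2 share is only a proxy for re-replication; each gene was hit by three separate siRNAs, and active genes were retested.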 The numbers tell different reagents against one gene apart. Not all columns of the deposit are shown. Not stated in the record: the amount of reagent.
gene knocked down,reagent no.,G2 robust z-score,"G2 cells, % of GMNN control",Outcome
CRNKL1 (GeneID 51340),1,0.607,7.24,inactive
CRNKL1 (GeneID 51340),2,0.158,4.08,inactive
CRNKL1 (GeneID 51340),3,0.438,6.05,inactive
NOSIP (GeneID 51070),1,-1,-4.07,inactive
NOSIP (GeneID 51070),2,-0.56,-0.975,inactive
NOSIP (GeneID 51070),3,0.475,6.31,inactive
SOHLH1 (GeneID 402381),1,4.56,35,inactive
SOHLH1 (GeneID 402381),2,-0.117,2.14,inactive
SOHLH1 (GeneID 402381),3,-0.602,-1.27,inactive
CRYAA (GeneID 1409),1,-0.94,-3.64,inactive
CRYAA (GeneID 1409),2,0.0532,3.34,inactive
CRYAA (GeneID 1409),3,1,10,inactive
ZFC3H1 (GeneID 196441),1,-0.681,-1.83,inactive
ZFC3H1 (GeneID 196441),2,-0.275,1.03,inactive
ZFC3H1 (GeneID 196441),3,-0.133,2.03,inactive
KERA (GeneID 11081),1,0.234,4.61,inactive
KERA (GeneID 11081),2,0.427,5.97,inactive
KERA (GeneID 11081),3,0.482,6.36,inactive

Next part (2 carried over from the part before).
gene knocked down,reagent no.,G2 robust z-score,"G2 cells, % of GMNN control",Outcome
KERA (GeneID 11081),2,0.427,5.97,inactive
KERA (GeneID 11081),3,0.482,6.36,inactive
VSTM2L (GeneID 128434),1,1.09,10.6,inactive
VSTM2L (GeneID 128434),2,-0.184,1.67,inactive
VSTM2L (GeneID 128434),3,1.44,13.1,inactive
CLDN23 (GeneID 137075),1,2.55,20.9,inactive
CLDN23 (GeneID 137075),2,-0.898,-3.35,inactive
CLDN23 (GeneID 137075),3,0.341,5.37,inactive
WWC1 (GeneID 23286),1,-0.859,-3.08,inactive
WWC1 (GeneID 23286),2,0.0848,3.56,inactive
WWC1 (GeneID 23286),3,1.19,11.3,inactive
LOC440895 (GeneID 440895),1,2.9,23.4,inactive
LOC440895 (GeneID 440895),2,-0.323,0.692,inactive
LOC440895 (GeneID 440895),3,0.107,3.72,inactive
